Some results were stated once for a whole list of compounds, not compound by compound.
Tested on: isolated CE-1 enzyme from porcine liver
Assay: CE-1 activity on short chain esters, 1H NMR
Type: biochemical
Details: vs methyl butyrate and ethyl lactate acetate
Description: To measure almost exclusively the contribution of carboxyl esterase activity from the CE-2 isoform, human breast cancer cells (MCF-7) were employed. These cells are known from literature to express CE-2 but not to express CE-1 (Byun et al, 2008, Cancer letters 266:238-48). A group of esters was investigated as substrates for CE-1, which contained different structural features. […] The acetate esters measured for CE-2 activity were therefore the same as those measured in the second group of possible substrates for CE-1.
The CE-1 experiments were performed with commercially available CE-1 from porcine liver. […] A series of thermal 1D ^1H NMR experiments were recorded every 5 min for 60 min. The data were analysed with MNOVA software and measured as percentage conversion of substrate calculated to account for the amount of substrate converted over 60 min. […]

Compound | faster converted than next class of substrates, factor
CCOC(=O)CCC(=O)OCC [Diethyl succinate] | > 2
COC(=O)CCC(=O)OC [Dimethyl succinate] | > 2

Reference: patent US20150133341A1, “Intra-Operative Cancer Diagnosis Based on a Hyperpolarized Marker” (ALBEDA INNOVATIONS APS, priority 2012, published 2015)
